# Measured values published in US7291641B2, “Derivatives of heterocycles with 5 members, their preparation and their use as medicaments” (Societe de Conseils de Recherches et d'Applications …, priority 1999, dated 2007).
# Counter-ions that a name gives are not always drawn. Some of these results come from one statement about several compounds together.
# System: voltage-dependent sodium channels
# Assay type: binding
# Details: homogenate of rat cortex; [3H] batrachotoxin-A 20-alpha benzoate 5 nM; 1 hour 30 minutes at 25° C.; read-out: IC50 on the bond of tritiated batrachotoxin on the voltage-dependent sodium channels
row,SMILES,IC50 [nM]
1,"CNCc1nc(-c2ccc3c(c2)Nc2ccccc2S3)cs1 [Example 30, N-methyl[4-(10H-phenothiazin-2-yl)-1,3-thiazol-2-yl]methanamine hydrochloride]",≤ 3500
2,"CCCCOC(=O)NCCc1nc(-c2ccc(-c3ccccc3)cc2)c[nH]1 [Example 31, butyl 2-(4-[1,1′-biphenyl]-4-yl-1H-imidazol-2-yl)ethylcarbamate]",≤ 1000
3,"CCCCC(=O)NCCc1nc(-c2ccc(-c3ccccc3)cc2)c[nH]1 [Example 32, N-[2-(4-[1,1′-biphenyl]-4-yl-1H-imidazol-2-yl)ethyl]pentanamide]",≤ 1000
4,"CCCCS(=O)(=O)NCCc1nc(-c2ccc(-c3ccccc3)cc2)c[nH]1 [Example 33, N-[2-(4-[1,1′-biphenyl]-4-yl-1H-imidazol-2-yl)ethyl]-1-butanesulphonamide]",≤ 1000
5,CCCCNC(=O)NCCc1nc(-c2ccc(-c3ccccc3)cc2)c[nH]1 [Example 34],≤ 1000
6,"Fc1ccc(-c2c[nH]c([C@@H](NC3CCC3)C3CCCCC3)n2)cc1 [Example 35, N-{(S)-cyclohexyl[4-(4-fluorophenyl)-1H-imidazol-2-yl]methyl}cyclobutanamine]",≤ 1000
7,"CCCCCCC(NC1CCCCC1)c1nc(C2CCCCC2)c[nH]1 (stereo not shown) [Example 36, N-[1-(4-cyclohexyl-1H-imidazol-2-yl)heptyl]cyclohexanamine]",≤ 1000
8,"CC(C)CCCC(NC1CCCCC1)c1nc(-c2cccc(Br)c2)c[nH]1 (stereo not shown) [Example 37, N-{1-[4-(3-bromophenyl)-1H-imidazol-2-yl]-5-methylhexyl}-N-cyclohexylamine]",≤ 1000
9,"CCCCCCC(NC1CCCCC1)c1nc(-c2ccc(F)cc2)c[nH]1 (stereo not shown) [Example 38, N-{1-[4-(4-fluorophenyl)-1H-imidazol-2-yl]heptyl}cyclohexanamine]",≤ 1000
10,"CN(Cc1ccccc1)Cc1nc(-c2ccc(-c3ccccc3)cc2)c[nH]1 [Example 42, N-benzyl(4-[1,1′-biphenyl]-4-yl-1H-imidazol-2-yl)-N-methylmethanamine]",≤ 1000
11,"CN(Cc1ccccc1)[C@H](Cc1c[nH]c2ccccc12)c1nc(-c2ccccc2)c[nH]1 [Example 46, (1R)-N-benzyl-2-(1H-indol-3-yl)-N-methyl-1-(4-phenyl-1H-imidazol-2-yl)ethanamine]",≤ 1000
12,"c1ccc(CCN[C@H](Cc2c[nH]c3ccccc23)c2nc(-c3ccccc3)c[nH]2)cc1 [Example 47, (1R)-2-(1H-indol-3-yl)-N-(2-phenylethyl)-1-(4-phenyl-1H-imidazol-2-yl)ethanamine]",≤ 1000
13,"c1ccc(CN[C@H](Cc2ccccc2)c2nc(-c3ccccc3)c[nH]2)cc1 [Example 48, (1R)-N-benzyl-2-phenyl-1-(4-phenyl-1H-imidazol-2-yl)ethanamine]",≤ 1000
14,"CCCCCCN[C@@H](Cc1c[nH]c2ccccc12)c1nc(-c2ccccc2)c[nH]1 [Example 53, N-[(1S)-2-(1H-indol-3-yl)-1-(4-phenyl-1H-imidazol-2-yl)ethyl]-1-hexanamine]",≤ 1000
15,"CC(C)C[C@H](N)c1nc(-c2ccccc2)c[nH]1 [Example 56, (1S)-3-methyl-1-(4-phenyl-1H-imidazol-2-yl)-1-butanamine]",≤ 1000
16,"CCCCOC(=O)NCCc1nc(-c2ccc(Oc3ccccc3)cc2)c[nH]1 [Example 57, butyl 2-[4-(4-phenoxyphenyl)-1H-imidazol-2-yl]ethylcarbamate]",≤ 1000
17,"CC(C)(C)CC(=O)NCCc1nc(-c2ccc(-c3ccccc3)cc2)c[nH]1 [Example 61, N-[2-(4-[1,1′-biphenyl]-4-yl-1H-imidazol-2-yl)ethyl]-3,3-dimethyl-butanamide]",≤ 1000
18,"CCCCOC(=O)NCc1nc(-c2ccc(-c3ccccc3)cc2)c[nH]1 [Example 78, butyl (4-[1,1′-biphenyl]-4-yl-1H-imidazol-2-yl)methylcarbamate]",≤ 1000
19,"N[C@H](c1nc(-c2ccccc2)c[nH]1)C1CCCCC1 [Example 80, (S)-cyclohexyl(4-phenyl-1H-imidazol-2-yl)methylamine]",≤ 1000
20,"c1[nH]c([C@@H](NC2CCCCC2)C2CCCCC2)nc1C1CCCCC1 [Example 82, N-[(S)-cyclohexyl(4-cyclohexyl-1H-imidazol-2-yl)methyl]-cyclohexanamine]",≤ 1000
21,"c1ccc(-c2c[nH]c([C@@H](NC3CCC3)C3CCCCC3)n2)cc1 [Example 83, N-[(S)-cyclohexyl(4-phenyl-1H-imidazol-2-yl)methyl]-cyclobutanamine]",≤ 1000
22,"COc1ccc(-c2c[nH]c([C@@H](NC3CCC3)C3CCCCC3)n2)cc1F [Example 85, N-{(S)-cyclohexyl[4-(3-fluoro-4-methoxyphenyl)-1H-imidazol-2-yl]methyl}cyclobutanamine]",≤ 1000
23,"Fc1cccc(-c2c[nH]c([C@@H](NC3CCC3)C3CCCCC3)n2)c1 [Example 87, N-{(S)-cyclohexyl[4-(3-fluorophenyl)-1H-imidazol-2-yl]methyl}-cyclobutanamine]",≤ 1000

row,SMILES,IC50 [nM]
1,"c1ccc(CN[C@H](Cc2c[nH]c3ccccc23)c2nc(-c3ccccc3)c[nH]2)cc1 [Example 88, (1R)-N-benzyl-2-(1H-indol-3-yl)-1-(4-phenyl-1H-imidazol-2-yl)ethanamine]",≤ 1000
2,"c1ccc(CN[C@@H](Cc2c[nH]c3ccccc23)c2nc(-c3ccccc3)c[nH]2)cc1 [Example 93, (1S)-N-benzyl-2-(1H-indol-3-yl)-1-(4-phenyl-1H-imidazol-2-yl)ethanamine]",≤ 1000
3,"c1ccc(CN[C@H](Cc2c[nH]c3ccccc23)c2nc(-c3ccccc3)c(-c3ccccc3)[nH]2)cc1 [Example 94, (1R)-N-benzyl-1-(4,5-diphenyl-1H-imidazol-2-yl)-2-(1H-indol-3-yl)ethanamine]",≤ 1000
4,"Cc1[nH]c([C@@H](Cc2c[nH]c3ccccc23)NCc2ccccc2)nc1-c1ccccc1 [Example 95, (1R)-N-benzyl-2-(1H-indol-3-yl)-1-(5-methyl-4-phenyl-1H-imidazol-2-yl)ethanamine]",≤ 1000
5,"N[C@H](Cc1c[nH]c2ccccc12)c1nc(-c2ccccc2)c[nH]1 [Example 97, (1R)-2-(1H-indol-3-yl)-1-(4-phenyl-1H-imidazol-2-yl)ethanamine]",≤ 1000
6,"N[C@H](Cc1c[nH]c2ccccc12)c1nc(-c2ccc([N+](=O)[O-])cc2)c[nH]1 [Example 106, (1R)-2-(1H-indol-3-yl)-1-[4-(4-nitrophenyl)-1H-imidazol-2-yl]ethanamine]",≤ 1000
7,"c1ccc(OCCN[C@H](Cc2c[nH]c3ccccc23)c2nc(-c3ccccc3)c[nH]2)cc1 [Example 108, (1R)-2-(1H-indol-3-yl)-N-(2-phenoxyethyl)-1-(4-phenyl-1H-imidazol-2-yl)ethanamine]",≤ 1000
8,"c1ccc(CNCc2nc(-c3ccccc3)cn2Cc2ccccc2)cc1 [Example 110, N-benzyl(1-benzyl-4-phenyl-1H-imidazol-2-yl)methanamine]",≤ 1000
9,"CC(C)(C)OC(=O)NC1(c2nc(-c3ccccc3)c[nH]2)CCCCC1 [Example 113, tert-butyl 1-(4-phenyl-1H-imidazol-2-yl)cyclohexylcarbamate]",≤ 1000
10,"N=C(N[C@H](Cc1c[nH]c2ccccc12)c1nc(-c2ccccc2)c[nH]1)c1ccccc1 [Example 117, N-[(1R)-2-(1H-indol-3-yl)-1-(4-phenyl-1H-imidazol-2-yl)ethyl]benzenecarboximidamide]",≤ 1000
11,"c1ccc(-c2c[nH]c([C@@H](Cc3c[nH]c4ccccc34)NCC3CCCCC3)n2)cc1 [Example 118, (1R)-N-(cyclohexylmethyl)-2-(1H-indol-3-yl)-1-(4-phenyl-1H-imidazol-2-yl)ethanamine]",≤ 1000
12,"COc1ccc(C(=N)N[C@H](Cc2c[nH]c3ccccc23)c2nc(-c3ccccc3)c[nH]2)cc1 [Example 121, N-[(1R)-2-(1H-indol-3-yl)-1-(4-phenyl-1H-imidazol-2-yl)ethyl]-4-methoxybenzenecarboximidamide]",≤ 1000
13,"c1ccc(CNC2(c3nc(-c4ccccc4)c[nH]3)CCCCC2)cc1 [Example 123, N-benzyl-1-(4-phenyl-1H-imidazol-2-yl)cyclohexanamine]",≤ 1000
14,"CC(C)C[C@@H](NCc1ccccc1)c1nc(-c2ccccc2)c[nH]1 [Example 125, (1R)-N-benzyl-3-methyl-1-(4-phenyl-1H-imidazol-2-yl)-1-butanamine]",≤ 1000
15,"CC(C)(C)OC(=O)N[C@H](CC1CCCCC1)c1nc(-c2ccccc2)c[nH]1 [Example 130, tert-butyl (1R)-2-cyclohexyl-1-(4-phenyl-1H-imidazol-2-yl)ethylcarbamate]",≤ 1000
16,"N[C@H](CCc1ccccc1)c1nc(-c2ccccc2)c[nH]1 [Example 131, (1R)-3-phenyl-1-(4-phenyl-1H-imidazol-2-yl)-1-propanamine]",≤ 1000
17,"N[C@H](CC1CCCCC1)c1nc(-c2ccccc2)c[nH]1 [Example 132, (1R)-2-cyclohexyl-1-(4-phenyl-1H-imidazol-2-yl)ethanamine]",≤ 1000
18,"c1ccc(CN[C@H](CC2CCCCC2)c2nc(-c3ccccc3)c[nH]2)cc1 [Example 134, (1R)-N-benzyl-2-cyclohexyl-1-(4-phenyl-1H-imidazol-2-yl)ethanamine]",≤ 1000
19,"c1ccc(CC[C@@H](NCc2ccccc2)c2nc(-c3ccccc3)c[nH]2)cc1 [Example 135, (1R)-N-benzyl-3-phenyl-1-(4-phenyl-1H-imidazol-2-yl)-1-propanamine]",≤ 1000
20,"CC(C)(C)OC(=O)NCc1nc(-c2ccc(-c3ccccc3)cc2)c[nH]1 [Example 137, 4-(2-{[(tert-butoxycarbonyl)amino]methyl}-1H-imidazol-4-yl)-1,1′-biphenyl]",≤ 1000
21,"CS(=O)(=O)c1ccc(-c2c[nH]c([C@@H](NC3CCCCC3)C3CCCCC3)n2)cc1 [Example 138, N-{(S)-cyclohexyl[4-(4-methylsulphonylphenyl)-1H-imidazol-2-yl]methyl}cyclohexanamine]",≤ 1000
22,"CC(C)(NCc1ccccc1)c1nc(-c2ccccc2)c[nH]1 [Example 139, N-benzyl-2-(4-phenyl-1H-imidazol-2-yl)-2-propanamine]",≤ 1000
23,"NCc1nc(-c2ccc(-c3ccccc3)cc2)cn1Cc1ccccc1 [Example 143, (1-benzyl-4-[1,1′-biphenyl]-4-yl-1H-imidazol-2-yl)methanamine]",≤ 1000
